Source: the supplement of paper PMC12067093, “Discovery and optimisation of a covalent ligand for TRIM25 and its application to targeted protein ubiquitination” (Chemical Science, 2025)
The other results are listed elsewhere or left out.

Amino acid sequences for entries named in this document (tags omitted). A change or cut given only in a name is not applied to a line headed by its entry.
UniProt Q9NQG5: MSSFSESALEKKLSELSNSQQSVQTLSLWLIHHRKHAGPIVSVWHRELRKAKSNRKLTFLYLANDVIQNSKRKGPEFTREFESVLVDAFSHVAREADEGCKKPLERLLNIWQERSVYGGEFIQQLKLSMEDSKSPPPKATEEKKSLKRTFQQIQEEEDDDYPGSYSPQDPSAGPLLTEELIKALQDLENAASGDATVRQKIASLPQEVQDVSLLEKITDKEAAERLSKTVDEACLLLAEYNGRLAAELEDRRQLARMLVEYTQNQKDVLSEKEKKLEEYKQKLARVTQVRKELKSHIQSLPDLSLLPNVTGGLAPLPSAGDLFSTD
UniProt P31949: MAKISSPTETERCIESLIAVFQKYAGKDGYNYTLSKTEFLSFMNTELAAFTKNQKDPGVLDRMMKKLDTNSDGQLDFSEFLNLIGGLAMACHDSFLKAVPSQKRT
UniProt Q96T51: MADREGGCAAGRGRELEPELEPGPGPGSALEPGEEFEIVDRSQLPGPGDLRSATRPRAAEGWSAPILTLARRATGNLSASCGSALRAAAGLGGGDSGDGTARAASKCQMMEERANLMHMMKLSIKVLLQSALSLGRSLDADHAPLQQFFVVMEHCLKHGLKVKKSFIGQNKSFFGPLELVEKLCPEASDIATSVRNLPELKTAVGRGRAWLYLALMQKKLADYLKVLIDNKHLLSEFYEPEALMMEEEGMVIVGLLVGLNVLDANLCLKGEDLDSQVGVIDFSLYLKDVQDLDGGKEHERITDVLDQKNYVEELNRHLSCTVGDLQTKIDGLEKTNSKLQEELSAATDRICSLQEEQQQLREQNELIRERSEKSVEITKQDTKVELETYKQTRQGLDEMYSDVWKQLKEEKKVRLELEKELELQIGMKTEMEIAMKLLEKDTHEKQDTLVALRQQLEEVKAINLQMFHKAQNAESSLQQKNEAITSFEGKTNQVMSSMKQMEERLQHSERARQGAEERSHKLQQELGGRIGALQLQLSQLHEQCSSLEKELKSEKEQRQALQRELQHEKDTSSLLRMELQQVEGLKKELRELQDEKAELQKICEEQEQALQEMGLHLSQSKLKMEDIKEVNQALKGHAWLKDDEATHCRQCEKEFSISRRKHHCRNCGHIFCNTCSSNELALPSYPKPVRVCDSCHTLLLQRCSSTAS
UniProt Q5VWQ0: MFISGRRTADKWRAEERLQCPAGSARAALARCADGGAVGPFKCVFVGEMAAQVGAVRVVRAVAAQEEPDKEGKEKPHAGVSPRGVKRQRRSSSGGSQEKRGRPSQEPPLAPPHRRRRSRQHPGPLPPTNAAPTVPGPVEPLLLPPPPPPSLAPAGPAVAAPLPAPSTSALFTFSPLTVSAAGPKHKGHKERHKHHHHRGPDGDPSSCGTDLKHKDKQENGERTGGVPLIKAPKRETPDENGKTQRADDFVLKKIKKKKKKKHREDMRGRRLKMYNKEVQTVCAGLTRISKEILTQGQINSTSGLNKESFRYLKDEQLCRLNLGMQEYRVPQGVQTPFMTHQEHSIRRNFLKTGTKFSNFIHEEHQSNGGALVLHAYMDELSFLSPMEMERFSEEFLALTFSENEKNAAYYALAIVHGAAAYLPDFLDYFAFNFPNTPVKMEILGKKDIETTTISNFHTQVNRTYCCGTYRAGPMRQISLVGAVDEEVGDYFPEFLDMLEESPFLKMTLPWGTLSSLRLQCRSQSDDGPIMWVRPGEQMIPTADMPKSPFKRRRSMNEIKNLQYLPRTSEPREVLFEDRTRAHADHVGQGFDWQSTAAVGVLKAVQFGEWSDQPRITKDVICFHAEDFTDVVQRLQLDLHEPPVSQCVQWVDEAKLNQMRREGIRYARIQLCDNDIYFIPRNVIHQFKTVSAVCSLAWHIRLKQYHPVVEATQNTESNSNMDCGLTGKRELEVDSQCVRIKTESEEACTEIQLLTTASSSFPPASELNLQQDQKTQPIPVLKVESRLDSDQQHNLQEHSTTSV
UniProt Q8N122, whole entry, looked up: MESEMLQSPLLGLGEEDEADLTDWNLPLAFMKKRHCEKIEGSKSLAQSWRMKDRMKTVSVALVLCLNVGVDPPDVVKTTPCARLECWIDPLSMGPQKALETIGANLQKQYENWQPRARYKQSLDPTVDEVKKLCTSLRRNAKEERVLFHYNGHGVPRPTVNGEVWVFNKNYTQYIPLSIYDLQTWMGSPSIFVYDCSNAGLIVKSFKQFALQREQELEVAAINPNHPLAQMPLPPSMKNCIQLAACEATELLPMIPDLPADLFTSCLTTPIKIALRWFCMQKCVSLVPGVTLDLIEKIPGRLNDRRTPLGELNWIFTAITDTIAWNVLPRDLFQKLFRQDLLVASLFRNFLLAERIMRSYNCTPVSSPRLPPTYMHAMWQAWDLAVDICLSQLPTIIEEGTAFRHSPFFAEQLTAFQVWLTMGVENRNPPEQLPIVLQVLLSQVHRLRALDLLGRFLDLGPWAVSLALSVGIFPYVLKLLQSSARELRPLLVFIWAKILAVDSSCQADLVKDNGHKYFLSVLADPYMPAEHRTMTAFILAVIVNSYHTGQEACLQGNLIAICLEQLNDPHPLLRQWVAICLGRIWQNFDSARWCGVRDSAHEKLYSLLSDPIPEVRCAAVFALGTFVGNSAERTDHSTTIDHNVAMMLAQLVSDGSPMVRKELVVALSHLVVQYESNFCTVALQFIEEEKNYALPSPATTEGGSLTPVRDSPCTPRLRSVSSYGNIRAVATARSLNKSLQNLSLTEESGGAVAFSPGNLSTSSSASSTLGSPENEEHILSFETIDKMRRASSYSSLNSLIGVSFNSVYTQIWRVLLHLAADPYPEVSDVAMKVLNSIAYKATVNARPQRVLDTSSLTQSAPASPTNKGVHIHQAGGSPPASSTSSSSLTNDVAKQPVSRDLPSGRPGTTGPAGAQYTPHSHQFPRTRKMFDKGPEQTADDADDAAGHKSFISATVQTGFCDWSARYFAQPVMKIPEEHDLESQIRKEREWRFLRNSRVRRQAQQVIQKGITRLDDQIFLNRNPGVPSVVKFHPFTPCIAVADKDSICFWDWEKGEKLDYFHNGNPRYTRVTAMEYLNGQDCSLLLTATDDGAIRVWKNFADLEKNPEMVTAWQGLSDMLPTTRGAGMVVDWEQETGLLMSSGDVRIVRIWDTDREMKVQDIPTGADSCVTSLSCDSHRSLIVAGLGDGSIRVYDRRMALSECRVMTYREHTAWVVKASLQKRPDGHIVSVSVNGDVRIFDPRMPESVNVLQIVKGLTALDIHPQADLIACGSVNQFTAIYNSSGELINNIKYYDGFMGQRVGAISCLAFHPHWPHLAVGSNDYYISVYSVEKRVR
UniProt Q5JTH9: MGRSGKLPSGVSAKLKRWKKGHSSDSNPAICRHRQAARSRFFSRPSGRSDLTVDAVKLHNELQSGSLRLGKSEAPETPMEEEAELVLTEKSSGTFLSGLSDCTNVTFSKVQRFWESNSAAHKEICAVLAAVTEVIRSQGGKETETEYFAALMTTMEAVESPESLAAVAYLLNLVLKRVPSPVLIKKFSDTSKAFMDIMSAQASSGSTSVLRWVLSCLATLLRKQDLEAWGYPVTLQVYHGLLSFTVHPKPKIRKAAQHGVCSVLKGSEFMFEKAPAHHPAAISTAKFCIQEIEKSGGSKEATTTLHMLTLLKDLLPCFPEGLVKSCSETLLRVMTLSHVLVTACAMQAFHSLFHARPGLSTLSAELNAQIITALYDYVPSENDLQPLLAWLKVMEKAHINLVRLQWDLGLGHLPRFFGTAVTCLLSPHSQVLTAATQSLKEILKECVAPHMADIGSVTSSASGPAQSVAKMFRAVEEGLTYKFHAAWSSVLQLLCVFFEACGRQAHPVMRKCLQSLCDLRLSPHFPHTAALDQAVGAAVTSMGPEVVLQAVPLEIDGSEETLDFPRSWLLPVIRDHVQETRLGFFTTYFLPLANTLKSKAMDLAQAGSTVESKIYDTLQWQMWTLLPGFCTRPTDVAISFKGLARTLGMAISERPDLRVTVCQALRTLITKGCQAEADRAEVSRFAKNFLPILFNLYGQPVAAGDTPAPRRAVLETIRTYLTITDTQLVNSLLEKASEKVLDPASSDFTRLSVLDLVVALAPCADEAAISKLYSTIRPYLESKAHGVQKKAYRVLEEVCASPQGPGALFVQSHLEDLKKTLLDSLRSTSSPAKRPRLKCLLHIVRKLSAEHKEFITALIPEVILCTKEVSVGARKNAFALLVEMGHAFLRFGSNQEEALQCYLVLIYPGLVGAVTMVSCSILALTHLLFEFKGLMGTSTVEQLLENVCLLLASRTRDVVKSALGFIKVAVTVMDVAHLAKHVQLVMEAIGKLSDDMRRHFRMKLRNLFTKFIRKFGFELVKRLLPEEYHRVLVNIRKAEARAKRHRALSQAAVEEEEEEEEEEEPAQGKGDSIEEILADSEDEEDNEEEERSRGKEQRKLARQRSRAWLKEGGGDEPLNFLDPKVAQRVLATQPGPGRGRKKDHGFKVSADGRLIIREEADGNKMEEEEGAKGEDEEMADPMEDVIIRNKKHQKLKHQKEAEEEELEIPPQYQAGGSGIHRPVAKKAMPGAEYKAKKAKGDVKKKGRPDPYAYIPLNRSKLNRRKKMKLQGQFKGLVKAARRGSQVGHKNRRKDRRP
UniProt O00442: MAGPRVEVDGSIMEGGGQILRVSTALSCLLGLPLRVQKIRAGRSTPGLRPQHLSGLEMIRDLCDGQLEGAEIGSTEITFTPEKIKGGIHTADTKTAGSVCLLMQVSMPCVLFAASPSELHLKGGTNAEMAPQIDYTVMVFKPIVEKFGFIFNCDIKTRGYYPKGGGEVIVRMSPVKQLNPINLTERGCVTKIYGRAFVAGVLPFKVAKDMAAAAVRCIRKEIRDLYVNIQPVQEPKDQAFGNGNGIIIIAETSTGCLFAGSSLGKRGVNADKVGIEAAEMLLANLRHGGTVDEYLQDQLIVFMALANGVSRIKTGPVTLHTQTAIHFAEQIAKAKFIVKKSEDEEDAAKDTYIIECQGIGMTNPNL
UniProt Q96DX4: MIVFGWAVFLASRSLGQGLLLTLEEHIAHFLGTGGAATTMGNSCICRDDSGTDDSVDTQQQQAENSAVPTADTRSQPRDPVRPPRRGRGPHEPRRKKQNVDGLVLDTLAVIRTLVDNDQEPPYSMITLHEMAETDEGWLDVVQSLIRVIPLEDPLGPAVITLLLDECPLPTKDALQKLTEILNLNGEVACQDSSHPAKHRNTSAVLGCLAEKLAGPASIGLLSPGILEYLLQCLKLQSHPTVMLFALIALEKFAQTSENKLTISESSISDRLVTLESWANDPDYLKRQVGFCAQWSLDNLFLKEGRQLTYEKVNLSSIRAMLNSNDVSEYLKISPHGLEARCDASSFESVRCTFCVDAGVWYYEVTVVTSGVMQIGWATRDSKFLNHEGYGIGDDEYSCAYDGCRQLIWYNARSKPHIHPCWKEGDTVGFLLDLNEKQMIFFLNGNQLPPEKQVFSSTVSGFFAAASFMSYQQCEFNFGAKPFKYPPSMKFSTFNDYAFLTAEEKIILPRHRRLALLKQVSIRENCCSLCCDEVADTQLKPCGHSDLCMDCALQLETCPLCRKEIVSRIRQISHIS
UniProt Q9BY42: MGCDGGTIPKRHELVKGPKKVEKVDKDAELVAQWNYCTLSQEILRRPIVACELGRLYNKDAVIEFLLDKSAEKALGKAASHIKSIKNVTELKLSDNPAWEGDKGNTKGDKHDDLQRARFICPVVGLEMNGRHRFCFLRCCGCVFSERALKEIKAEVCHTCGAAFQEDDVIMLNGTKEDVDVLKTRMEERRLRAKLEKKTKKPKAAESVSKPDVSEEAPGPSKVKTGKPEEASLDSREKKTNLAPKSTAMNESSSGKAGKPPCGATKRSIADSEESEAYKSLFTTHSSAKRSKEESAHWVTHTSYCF
UniProt Q96ER3: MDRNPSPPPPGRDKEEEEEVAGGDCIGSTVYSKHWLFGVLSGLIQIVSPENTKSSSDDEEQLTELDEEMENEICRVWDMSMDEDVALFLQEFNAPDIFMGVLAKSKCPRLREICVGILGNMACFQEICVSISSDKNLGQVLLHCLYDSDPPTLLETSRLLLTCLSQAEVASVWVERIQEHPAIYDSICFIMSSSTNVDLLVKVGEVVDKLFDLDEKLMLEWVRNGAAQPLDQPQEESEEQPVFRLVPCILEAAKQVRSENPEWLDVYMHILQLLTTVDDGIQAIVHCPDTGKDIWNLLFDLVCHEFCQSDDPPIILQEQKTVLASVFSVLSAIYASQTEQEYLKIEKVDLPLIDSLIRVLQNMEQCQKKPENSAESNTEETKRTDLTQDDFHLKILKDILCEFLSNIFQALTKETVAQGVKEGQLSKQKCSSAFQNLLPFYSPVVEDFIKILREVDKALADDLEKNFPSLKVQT

compound: CC1Cc2ccccc2N1C(=O)C1CCCN(C1)C(=O)CCl (mixture of isomers) [TRIM25 ligand 11 (diastereomer mixture)]; assay: probe-labelled cysteine peptide fold change vs DMSO (competition) (log2 fold change); higher = less target engagement (more negative = stronger competition); conditions: 10 µM; THP-1; incubation time: 4 h
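Note: competitive chemoproteomic profiling in live THP-1 cells with an iodoacetamide desthiobiotin (IA-DTB) probe, comparing probe-labelled peptide intensities in compound-treated cells against DMSO-treated controls.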

Point of comparison: “RPRD1B_Q9NQG5_100_EADEGCK (UniProt Q9NQG5)”, “probe-labelled cysteine peptide fold change” value -0.0863. Against it:
- RPS3_P23396_134_GCEVVVSGK (UniProt P23396) — higher, 0.0361
- RPS11_P62280_131_DVQIGDIVTVGECRPLSKTVR (UniProt P62280) — lower, -0.106
- S100A11_P31949_13_CIESLIAVFQK (UniProt P31949) — lower, -0.234
- RUFY1_Q96T51_107_CQMMEER (UniProt Q96T51) — higher, 0.0837
- RSBN1_Q5VWQ0_671_IQLCDNDIYFIPR (UniProt Q5VWQ0) — higher, 0.00486
- RPTOR_Q8N122_1168_VQDIPTGADSCVTSLSCDSHR (UniProt Q8N122) — higher, -0.0403
- RUFY1_Q96T51_675_NCGHIFCNTCSSNELALPSYPK (UniProt Q96T51) — higher, 0.0301
- RRP12_Q5JTH9_673_GCQAEADRAEVSR (UniProt Q5JTH9) — higher, 0.0652
- RPS20_P60866_70_TPCGEGSK (UniProt P60866) — higher, -0.0516
- RPS8_P62241_71+72_LDVGNFSWGSECCTR (UniProt P62241) — higher, -0.045
- RTCA_O00442_63_DLCDGQLEGAEIGSTEITFTPEK (UniProt O00442) — higher, 0.377
- RSPRY1_Q96DX4_208_NTSAVLGCLAEK (UniProt Q96DX4) — higher, -0.0649
- RPS8_P62241_72_LDVGNFSWGSECCTRK (UniProt P62241) — lower, -0.359
- RTFDC1_Q9BY42_262_AGKPPCGATK (UniProt Q9BY42) — higher, -0.0213
- RPS3_P23396_119_RACYGVLR (UniProt P23396) — higher, -0.079
- SAAL1_Q96ER3_366_VLQNMEQCQK (UniProt Q96ER3) — higher, 0.0806
